Laboratory results as given in patent US20140349310A1.
These are yes or no findings as the source states them, for the method shown. Some results given as binding are weak or reduced against the parent protein; the word gives no strength.

Target: cynomolgus monkey c-Met expressed on NIH 3T3 cells (cynomolgus monkey)
Test: FACS on live cells

B1: anti-c-Met monoclonal antibody OptD11 (mouse IgG1 subtype) (antibody, V domains shown)
VH: EVQLQQSGPELVKPGASVRISCKASGYTFTSRYIHWMKQRPGQGLEWIGWIYPVTGDTYYNEKFKGKATLTSDKSSSTAYMQISSLTSDDSAVYFCARGGGMFYYWGQGTLVTVSA
VL: ETTVTQSPALMAASPGEKVTITCSVSSSISSTNLHWYQQKSETSPKPWIYGTSNLASGVPVRFGGSGSGTSYSLTISSMEAEDAATYYCQQWSSYPYTFGGGTKLEIKR
  binding: binds
